Laboratory results as given in PubChem BioAssay AID602296 (Broad Institute, 2012).
In all, about 2,000 compounds went through this assay and about 190 (9.5%) were called active. Another 14% or so got no clear call; they are omitted.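 How the source made its calls: active means fitted activation curve crossing 40% at a concentration no higher than the sample's top valid tested dose; inconclusive means flat fitted curve at 30% to 70% activation, or poor curve fit; inactive means signal decrease, flat curve within 30%, or the rest.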 This part holds few or none of the hits.

Experiment: HSF-1 reporter activators over prolonged exposure, confirmation, cell-based, mouse, luciferase, cherry-pick, dose (AID 602296);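 further: test compounds applied by themselves with no MG132 co-treatment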
Settings: NIH3T3-HGL HSF-1 response element luciferase, 48 h; at 26 µM (top of the series) unless noted

activation, inactive:
NC(=O)CC(NC(=O)c1ccc(Br)cc1)c1ccc(N2CCCCCC2)c([N+](=O)[O-])c1 (stereo not drawn) -21.6%
COc1cc(NC(=O)COC(=O)c2ccc(C)c(S(=O)(=O)N3CCCCC3)c2)c(C)cc1[N+](=O)[O-] -7.45%
O=C(CS(=O)c1ccc(C(F)(F)F)cc1[N+](=O)[O-])Oc1ccccc1 (stereo not drawn) -94.7%
C=C(C)CN(CC)c1nc(N)c2c(N)nc3c(c2c1C#N)CC(=O)N3C12CC3CC(CC(C3)C1)C2 -56.4%
COc1ccc(N/C=C2\C(=O)CCc3c2oc2cc(Cl)c(O)c(Cl)c32)cc1 -8.08%
O=C(CN1c2ccccc2Sc2ccccc21)N/N=C/c1ccc(Cl)cc1 -55.8%
COc1ccc(C(C(=O)NCC2CCCO2)N(C(=O)Cn2nnc3ccccc32)c2ccc(NC(C)=O)cc2)cc1OC (stereo not drawn) 5.69%
CCCCn1c(NC(=O)c2ccco2)c(S(=O)(=O)c2ccc(C)cc2)c2nc3ccccc3nc21 -17.4%
COc1ccc(CN(CC2CCC(C(=O)O)CC2)C(=S)Nc2cc(Cl)ccc2OC)cc1 (stereo not drawn) -20.2%
Cc1c(C(=O)NCCN(C)C)oc2ccc(S(=O)(=O)N3CCCC3)cc12 -11.1%
COc1ccc(CNCC(O)COc2ccc(C(C)(C)c3ccccc3)cc2)cc1 (stereo not drawn) -44.6%
COc1ccc(S(=O)(=O)Nc2ccncc2)c(C)c1C 6.75%
O=C(CNS(=O)(=O)c1ccc(Br)s1)NCc1ccccc1 0.286%
Cc1cc2c(cc1C)C(c1cccc([N+](=O)[O-])c1)CC(=O)N2 (stereo not drawn) 2.19%
O=C(O)CN1C(=O)/C(=C/c2ccccc2Br)Oc2ccccc21 3.86%
CCCC(=O)O/N=C(\c1ccccc1)c1ccncc1 -17.2%
CCn1c(SCCOc2ccc(Cl)cc2)nnc1-c1cccs1 -36.1%
Cc1cc(NCCN2CCOCC2)n2nc(C)c(-c3ccc(Cl)cc3)c2n1 -28%
COc1ccc(CNS(=O)(=O)c2cc(CN3C(=O)c4cccnc4C3=O)ccc2OC)cc1 5.12%
CC(=O)N1CSCC1C(=O)NNS(=O)(=O)c1cccc(C(F)(F)F)c1 (stereo not drawn) 5.92%
O=C(Nc1ccc(C(=O)N2CCOCC2)cc1)c1cnn2c(C(F)F)cc(-c3ccccc3)nc12 1.93%
COCCCN1C(=O)c2[nH]nc(-c3ccccc3O)c2C1c1cccc(Cl)c1 (stereo not drawn) -20.5%
CCOc1cc([N+](=O)[O-])cc(/C=C2/NC(=O)N(Cc3ccccc3F)C2=O)c1O -24.8%
CC1(c2ccccc2)CC2CC(c3ccccc3)N1O2 (stereo not drawn) 4.93%
Cc1ccc2nc(SCC(=O)Nc3cccc(S(=O)(=O)NC4=NCCCCC4)c3)[nH]c2c1 -16.7%
Cc1cc(Sc2ncnc(N)c2[N+](=O)[O-])ncn1 -99%
COc1cc(/C=N/Nc2snc(SC)c2C#N)ccc1O -4.99%
CCCCn1c(N)c(N(CC(C)C)C(=O)C2CCN(S(=O)(=O)c3ccc(C)c(C)c3)CC2)c(=O)[nH]c1=O -3.45%
COc1ccc(C(=O)Nc2cc(C(F)(F)F)ccc2-n2cnc3ccccc32)cc1 -9.25%
CCc1cccc(CC)c1NC(=O)COC(=O)CC1c2ccccc2CCN1S(=O)(=O)c1ccc(F)cc1 (stereo not drawn) -24.4%
O=C1C(=O)N(Cc2cccnc2)C(c2cccc(O)c2)/C1=C(\O)c1ccc2c(c1)OCCO2 (stereo not drawn) 0.865%
Cc1cccc(C2c3[nH]c4ccccc4c3CCN2Cc2cnn(-c3ccc(F)cc3)c2)n1 (stereo not drawn) -2.28%
COc1ccccc1NS(=O)(=O)c1cc(C(=O)N2CC(C)CC(C)C2)ccc1C (stereo not drawn) -17.2%
Nc1nc(Br)c2c(F)cccc2c1-c1ccc(Cl)cc1 -7.38%
CC(NC(=O)/C=C/c1ccco1)c1nc2ccccc2n1Cc1cccc(Cl)c1 (stereo not drawn) -32.1%
Cc1cc(C)c2cc(CN(Cc3ccco3)C(=S)NCC3CCCO3)c(=O)[nH]c2c1 (stereo not drawn) -3.55%
CSc1nc(NC(C)(C)C)nc(Oc2ccc(=O)[nH]n2)n1 12.6%
CCCN(CCC)C(=S)NC1CC2C=CC1C2 (stereo not drawn) -20.6%
CN(C)c1nc(NC(C)(C)C)nc(SCC(=O)Nc2ccccc2)n1 -14.3%
O=C(Nc1cccc(Cl)c1)N1CCC(CO)(CCOc2ccccc2)CC1 6.61%
O=c1c2ccccc2nc(SCc2nnc(-c3ccccc3Br)o2)n1Cc1ccco1 8.55%
CCc1nc(N2CCN(S(=O)(=O)c3ccc(Br)cc3)CC2)c2c(C)c(C)sc2n1 -13.7% [at 12 µM]
c1ccc(-c2nc(CSc3n[nH]c(-c4cccs4)n3)cs2)cc1 0.044%
O=c1c(Cl)cc(Cl)nn1-c1ccccc1 -99.9%
COc1ccc(Cl)cc1NC(=O)CCc1nc(-c2ccccc2F)no1 -32.6%
Fc1ccc(NC(=S)Nc2cc(Cl)ccc2Cl)cc1 -2.92%
O=C(COC(=O)c1ccccc1C(=O)c1ccccc1)NCCc1ccccc1 -4.6%
O=C(CSc1nn(-c2ccc(F)cc2)c(=S)s1)N1CCN(C(=O)c2ccco2)CC1 21.5%
O=C(c1ccccn1)N(Cc1ccco1)C1(C(=O)NC2CCCC2)CCCCC1 -7.35%
CCOC(=O)N1CCN(C(=O)c2cnc3n(c2=O)CCS3)CC1 -14.1%
Cc1c(C#N)c(O)n(CCO)c(=O)c1N=Nc1ccc2c(c1)COC2=O -71.9%
Fc1ccc(-c2nnc3ccc(N4CCc5ccccc5C4)nn23)cc1 -21.3%
N#Cc1cc(Cl)c(NCC2CCCO2)cc1C#N (stereo not drawn) -8.57%
Cc1ccc(OC(=O)c2ccc(C)c(C)c2)cn1 0.572%
c1ccc(Cn2nnnc2C(c2cccs2)N2CCc3ccccc3C2)cc1 (stereo not drawn) -61.7%
CSc1sc(C(=O)OC(C)C)c2c1C(=O)CC(C)(C)C2 9.1%
CC1CC2(CCCCC2)Nc2ccc3ccccc3c21 (stereo not drawn) -10.7%
C=CCNCCOCCSc1ccc(Cl)cc1 2.19%
COc1ccc(Cl)cc1N(CC(=O)Nc1ccccc1SC)S(C)(=O)=O 5.09%
Cc1ccc(F)cc1NC(=O)N1CCCN(c2ccc(C(F)(F)F)cn2)CC1 -5.59%
CCCCNC(=S)NNC(=O)c1csc2ccccc12 13.2%
CC(C)(Oc1ccc(Cl)cc1)C(=O)Nc1ccc2oc(-c3ccncc3)nc2c1 12.7%
O=c1[nH][nH]c2cc(=O)n(-c3cccc(C(F)(F)F)c3)nc12 -5.51%
CC1=CC2=C(OC1N(C)C)c1cccc3cccc(c13)C2=O (stereo not drawn) -31.4%
COc1cc(/C=C/C(=O)c2c(O)ccc3c(C)cc(=O)oc23)ccc1O -4.95%
FC(F)(F)c1nnc(-c2ccccc2)nc1Sc1ccccc1 -96.8%
CCOc1ccc2nc(SCc3ccc(C(=O)OC)o3)[nH]c2c1 -12.3%
Cc1ccccc1-n1c(-c2ccc(Cl)cc2)cnc1SCC(=O)NC1CCS(=O)(=O)C1 (stereo not drawn) -15.9%
Clc1ccc(-n2cc(COCc3ccccc3)nn2)cc1 -82.4%
CSCCC(NS(=O)(=O)c1cccc(C(F)(F)F)c1)C(=O)N(C)CCOc1ccc(Cl)cc1 (stereo not drawn) -74.1%
CCOC(=O)N1CCN(C(=O)CS(=O)(=O)c2cn(Cc3ccc(F)cc3)c3ccccc23)CC1 -26.3%
CNc1c(NS(=O)(=O)c2ccc(F)c(Cl)c2)c(=O)oc2ccccc12 -16.6%
Cc1nc(N2CCC(C)CC2)c2c(C)c(C(=O)Nc3cccc(C(F)(F)F)c3)sc2n1 -24.8%
O=S(=O)(c1cc(Cl)ccc1Cl)N1CC2CCCN2c2ccc(C(F)(F)F)cc21 (stereo not drawn) -10.1%
Brc1ccccc1-n1nnc(-c2cnc3ccccc3c2)n1 -85.8%
CC(C(=O)Nc1ccccc1Br)N1c2cccc3cccc(c23)S1(=O)=O (stereo not drawn) -32.6%
COCCNC(=O)Cn1cnc2c1c(=O)n(C)c(=O)n2C -7.4%
CS(=O)(=O)Nc1cccc(C2=NN(C(=O)CCCC(=O)O)C(c3cccs3)C2)c1 (stereo not drawn) -4.69%
CCN(CC)S(=O)(=O)c1cc([N+](=O)[O-])ccc1NNC(=O)Nc1ccccc1OC -37%
COc1ccc(OC)c(N(CC(=O)N2CCC(C)CC2)S(=O)(=O)c2ccccc2)c1 -8.62%
Cc1onc(-c2ccccc2)c1C(=O)N/N=C/c1cccc(O)c1 -6.78%
Cc1ccc(S(=O)(=O)N2CCN(C(=O)CSc3ccc(Cl)cc3)CC2)cc1 -14.2%
COc1cccc(NC(=O)CSc2nc3c([nH]c4ccccc43)c(=O)n2C)c1 -40.4%
CN(C)CCCCNCCCNC(=O)/C=N\O 12.4%
COc1ccc(CNC(=O)C(c2ccc(C)o2)N(C(=O)c2csnn2)c2ccc(C(C)C)cc2)cc1 (stereo not drawn) -4.22%
CC(=O)Nc1ccc(S(=O)(=O)NC2=C(N3CCN(c4ccc(F)cc4)CC3)C(=O)c3ccccc3C2=O)cc1 -18.4%
COc1cccc(CNc2ccc([N+](=O)[O-])cc2Cl)c1O -1.25%
O=S(=O)(CC(CN1CCCCC1)N1CCCCC1)c1ccc2ccccc2c1 (stereo not drawn) 134%

Sorted by molar mass (descending): part of the list above.
activation, inactive:
O=C(Nc1ccc(C(=O)N2CCOCC2)cc1)c1cnn2c(C(F)F)cc(-c3ccccc3)nc12 1.93%
O=c1[nH][nH]c2cc(=O)n(-c3cccc(C(F)(F)F)c3)nc12 -5.51%
Cc1cc(Sc2ncnc(N)c2[N+](=O)[O-])ncn1 -99%

For convenience, part of the list above.
activation, inactive:
CCCN(CCC)C(=S)NC1CC2C=CC1C2 (stereo not drawn) -20.6%
CN(C)c1nc(NC(C)(C)C)nc(SCC(=O)Nc2ccccc2)n1 -14.3%
O=C(Nc1cccc(Cl)c1)N1CCC(CO)(CCOc2ccccc2)CC1 6.61%
